PubChem BioAssay AID1508588 | Peter MacCallum Cancer Centre – 2020

Purpose: 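Knock-downs boosting vemurafenib effects on melanoma cell growth or lactate release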 (primary screen)
Cells: human WM266.4 melanoma cells (BRAF V600 mutant)
Reagents: siRNA pool against human genes, 40 nM
Timing: 96 h from transfection to read-out
Conditions: vemurafenib 300 nM (about IC25), added 48 h after transfection, for 48 h; comparison arm got DMSO vehicle only
Detection: 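Ratios to non-targeting siRNA for cell gain, counted as DAPI nuclei after minus before drug and averaged over two replicates, and for absorbance-read medium lactate per cell; both binned into fold-change classes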
Reading the numbers: cell gain with vemurafenib: higher = more cell gain than with non-targeting siRNA; lactate per cell with vemurafenib: higher = more lactate made per cell
Hit rule: 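a knock-down counts as enhancing when its fold-change classes with vehicle and with vemurafenib, taken together, show a stronger drug effect on cell gain or lactate per cell; exact class pairs not stated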
Meaning of the calls: active = enhances vemurafenib effect; inactive = no enhancement seen
This is a random part of about 18,000 deposited reagents. In the full data, 790 (4.4%) got an active call. 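Calls rest on a combination of fold-change classes in drug and vehicle arms, not all shown here.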 Reagents against one gene are numbered here.

Knock-down of CPLX1 (complexin 1) came out at: cell gain with vemurafenib 0.2; lactate per cell with vemurafenib 1.75; inactive.
For RNF168 (ring finger protein 168), the values are cell gain with vemurafenib 1.01; lactate per cell with vemurafenib 0.84; inactive.
RAB40AL (RAB40A like) scored cell gain with vemurafenib 0.72; lactate per cell with vemurafenib 1.4; inactive.
For RNF166 (ring finger protein 166), the values are cell gain with vemurafenib 1.06; lactate per cell with vemurafenib 0.69; inactive.
For PSME2 (proteasome activator subunit 2) the deposit lists cell gain with vemurafenib 0.13; lactate per cell with vemurafenib 1.63; inactive.
With knock-down of IL33R (interleukin 33 receptor), the screen gave cell gain with vemurafenib 1.11; lactate per cell with vemurafenib 0.62; inactive.
After knock-down of PPFIA4 (PPFI scaffold protein A4), the record shows cell gain with vemurafenib 0.87; lactate per cell with vemurafenib 0.53; inactive.
Knock-down of OR2B6 (olfactory receptor family 2 subfamily B member 6) gave: cell gain with vemurafenib 0.3; lactate per cell with vemurafenib 2.12; inactive.
Against NIT1 (nitrilase 1) the deposit lists cell gain with vemurafenib 0.66; lactate per cell with vemurafenib 0.77; inactive.
With knock-down of HAX1 (HCLS1 associated protein X-1), the screen gave cell gain with vemurafenib 0.4; lactate per cell with vemurafenib 1.36; inactive.
SUCNR1 (succinate receptor 1) showed cell gain with vemurafenib 0.7; lactate per cell with vemurafenib 0.94; inactive.
AGAP4 (ArfGAP with GTPase domain, ankyrin repeat and PH domain 4) #1 scored cell gain with vemurafenib 0.68; lactate per cell with vemurafenib 1.41; inactive.
Knock-down of AGAP4 (ArfGAP with GTPase domain, ankyrin repeat and PH domain 4) #2 gave: cell gain with vemurafenib 0.53; lactate per cell with vemurafenib 0.31; active.
For ZNF28 (zinc finger protein 28), the entry reads cell gain with vemurafenib 0.72; lactate per cell with vemurafenib 1.19; inactive.
Depletion of C9orf163 (chromosome 9 putative open reading frame 163) gave: cell gain with vemurafenib 1.18; lactate per cell with vemurafenib 0.77; inactive.
SPIDR (scaffold protein involved in DNA repair) showed cell gain with vemurafenib 0.6; lactate per cell with vemurafenib 0.66; inactive.
Depletion of RNFT1 (ring finger protein, transmembrane 1) came out at: cell gain with vemurafenib 0.46; lactate per cell with vemurafenib 1.06; inactive.
Against JTB (jumping translocation breakpoint), the entry reads cell gain with vemurafenib 0.68; lactate per cell with vemurafenib 0.92; inactive.
OR1A2 (olfactory receptor family 1 subfamily A member 2) gave cell gain with vemurafenib 0.35; lactate per cell with vemurafenib 1.09; inactive.
Knock-down of HEPH (hephaestin) came out at: cell gain with vemurafenib 0.92; lactate per cell with vemurafenib 0.32; active.
With knock-down of ZNF599 (zinc finger protein 599), the record shows cell gain with vemurafenib 0.15; lactate per cell with vemurafenib 1.09; inactive.
MBOAT7 gave cell gain with vemurafenib 0.76; lactate per cell with vemurafenib 0.93; inactive.
For PAF1 (PAF1 component of Paf1/RNA polymerase II complex) the deposit lists cell gain with vemurafenib 0.77; lactate per cell with vemurafenib 0.84; inactive.
With knock-down of DOLK (dolichol kinase), the screen gave cell gain with vemurafenib 0.88; lactate per cell with vemurafenib 0.95; inactive.
Against FNDC11 (fibronectin type III domain containing 11) the deposit lists cell gain with vemurafenib 0.29; lactate per cell with vemurafenib 1.66; inactive.
For CALCB (calcitonin related polypeptide beta), the values are cell gain with vemurafenib 0.94; lactate per cell with vemurafenib 0.91; inactive.
RAB40C (RAB40C, member RAS oncogene family) showed cell gain with vemurafenib 0.85; lactate per cell with vemurafenib 1.02; inactive.
Knock-down of GSTM3 (glutathione S-transferase mu 3) gave: cell gain with vemurafenib 0.35; lactate per cell with vemurafenib 1.71; inactive.

3 neighbouring reagents already listed:
NIT1 (nitrilase 1): cell gain with vemurafenib = 0.66; lactate per cell with vemurafenib = 0.77; Outcome = inactive
HAX1 (HCLS1 associated protein X-1): cell gain with vemurafenib = 0.4; lactate per cell with vemurafenib = 1.36; Outcome = inactive
SUCNR1 (succinate receptor 1): cell gain with vemurafenib = 0.7; lactate per cell with vemurafenib = 0.94; Outcome = inactive

More entries follow:
After knock-down of PHC3 (polyhomeotic homolog 3) the results were cell gain with vemurafenib 0.29; lactate per cell with vemurafenib 1.38; inactive.
After knock-down of FKBPL (FKBP prolyl isomerase like) the results were cell gain with vemurafenib 0.37; lactate per cell with vemurafenib 1.19; inactive.
Knock-down of C1QTNF6 (C1q and TNF related 6) came out at: cell gain with vemurafenib 1.03; lactate per cell with vemurafenib 1.04; inactive.
Against TP53BP1 (tumor protein p53 binding protein 1), the entry reads cell gain with vemurafenib 0.94; lactate per cell with vemurafenib 1.34; inactive.
With knock-down of ZBTB20 (zinc finger and BTB domain containing 20) the results were cell gain with vemurafenib 0.84; lactate per cell with vemurafenib 1.27; inactive.
For LRRIQ4 (leucine rich repeats and IQ motif containing 4) the deposit lists cell gain with vemurafenib 0.36; lactate per cell with vemurafenib 0.8; inactive.
Depletion of CYP8B1 (cytochrome P450 family 8 subfamily B member 1) came out at: cell gain with vemurafenib 1.15; lactate per cell with vemurafenib 0.5; inactive.
Silencing of ARHGEF16 (Rho guanine nucleotide exchange factor 16) resulted in: cell gain with vemurafenib 0.47; lactate per cell with vemurafenib 1.31; inactive.
TM2D3 (TM2 domain containing 3) showed cell gain with vemurafenib 0.71; lactate per cell with vemurafenib 0.84; inactive.
SAAL1 (serum amyloid A like 1) scored cell gain with vemurafenib 0.85; lactate per cell with vemurafenib 0.71; inactive.
Depletion of BHLHE22 (basic helix-loop-helix family member e22) came out at: cell gain with vemurafenib 0.69; lactate per cell with vemurafenib 0.55; inactive.
Against DHX38 (DEAH-box helicase 38), the values are cell gain with vemurafenib 0.57; lactate per cell with vemurafenib 0.82; inactive.
For PPAT (phosphoribosyl pyrophosphate amidotransferase), the values are cell gain with vemurafenib 0.88; lactate per cell with vemurafenib 0.24; inactive.
Against ARSG (arylsulfatase G), the values are cell gain with vemurafenib 0.17; lactate per cell with vemurafenib 1; inactive.
DHX34 (DExH-box helicase 34) gave cell gain with vemurafenib 1.06; lactate per cell with vemurafenib 0.66; inactive.
With knock-down of RWDD4 (RWD domain containing 4), the screen gave cell gain with vemurafenib 0.39; lactate per cell with vemurafenib 0.91; inactive.
For SNX25 (sorting nexin 25), the entry reads cell gain with vemurafenib 0.38; lactate per cell with vemurafenib 0.38; inactive.
With knock-down of LPAL2 (lipoprotein(a) like 2 (pseudogene)), the screen gave cell gain with vemurafenib 0.52; lactate per cell with vemurafenib 1.21; inactive.
With knock-down of ZNFX1 (zinc finger NFX1-type containing 1), the screen gave cell gain with vemurafenib 0.33; lactate per cell with vemurafenib 0.65; inactive.
Knock-down of ZNF569 (zinc finger protein 569) gave: cell gain with vemurafenib 0.59; lactate per cell with vemurafenib 1.18; inactive.
Against ADARB2 (adenosine deaminase RNA specific B2 (inactive)), the values are cell gain with vemurafenib 0.83; lactate per cell with vemurafenib 1.23; inactive.
DNAH12 (dynein axonemal heavy chain 12) gave cell gain with vemurafenib 0.82; lactate per cell with vemurafenib 0.84; inactive.
For DSCR10 (Down syndrome critical region 10), the entry reads cell gain with vemurafenib 0.66; lactate per cell with vemurafenib 0.8; inactive.
Silencing of MATK (megakaryocyte-associated tyrosine kinase) resulted in: cell gain with vemurafenib 0.99; lactate per cell with vemurafenib 1.08; inactive.
